{"sequences": {"note": "The chains behind the UniProt entries cited, without tags or fusion partners. Residues count along the entry.", "UniProt P61026": "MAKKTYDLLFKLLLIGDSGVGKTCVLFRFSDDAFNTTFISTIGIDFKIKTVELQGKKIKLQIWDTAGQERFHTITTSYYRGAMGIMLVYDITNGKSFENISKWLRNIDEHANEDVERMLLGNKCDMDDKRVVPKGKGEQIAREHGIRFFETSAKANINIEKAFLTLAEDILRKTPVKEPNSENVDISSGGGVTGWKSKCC", "UniProt O60568, residues 25-738": "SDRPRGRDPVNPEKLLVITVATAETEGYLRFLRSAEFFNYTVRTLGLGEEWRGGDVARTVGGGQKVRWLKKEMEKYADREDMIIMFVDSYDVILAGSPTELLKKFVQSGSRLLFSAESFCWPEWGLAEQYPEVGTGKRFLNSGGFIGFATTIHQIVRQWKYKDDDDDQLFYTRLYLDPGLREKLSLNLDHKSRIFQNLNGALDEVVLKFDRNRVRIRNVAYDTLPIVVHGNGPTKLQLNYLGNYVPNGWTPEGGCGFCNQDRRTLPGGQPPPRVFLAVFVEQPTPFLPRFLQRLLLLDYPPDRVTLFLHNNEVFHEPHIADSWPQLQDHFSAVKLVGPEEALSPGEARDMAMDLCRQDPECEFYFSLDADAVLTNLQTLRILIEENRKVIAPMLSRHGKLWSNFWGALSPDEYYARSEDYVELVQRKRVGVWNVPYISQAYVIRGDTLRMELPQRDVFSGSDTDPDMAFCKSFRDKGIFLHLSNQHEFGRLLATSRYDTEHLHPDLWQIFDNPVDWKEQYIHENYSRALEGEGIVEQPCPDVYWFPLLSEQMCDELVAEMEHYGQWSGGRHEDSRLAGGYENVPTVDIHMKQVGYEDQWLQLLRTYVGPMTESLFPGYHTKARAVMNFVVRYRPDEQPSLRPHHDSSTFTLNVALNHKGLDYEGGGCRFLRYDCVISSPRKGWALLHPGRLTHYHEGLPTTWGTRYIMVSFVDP"}, "source": "paper PMC4961739", "about": "“Regulation of post-Golgi LH3 trafficking is essential for collagen homeostasis” (Nature Communications, 2016)", "molecules": {"B1": {"name": "GFP-RAB25 (protein, UniProt P57735 1-213)", "chain": "MGNGTEEDYNFVFKVVLIGESGVGKTNLLSRFTRNEFSHDSRTTIGVEFSTRTVMLGTAAVKAQIWDTAGLERYRAITSAYYRGAVGALLVFDLTKHQTYAVVERWLKELYDHAEATIVVMLVGNKSDLSQAREVPTEEARMFAENNGLLFLETSALDSTNVELAFETVLKEIFAKVSKQRQNSIRTNAITLGSAQAGQEPGPGEKRACCISL"}, "B2": {"name": "HA-tagged VPS33B (protein, UniProt Q9H267 1-617)", "chain": "MAFPHRPDAPELPDFSMLKRLARDQLIYLLEQLPGKKDLFIEADLMSPLDRIANVSILKQHEVDKLYKVENKPALSSNEQLCFLVRPRIKNMRYIASLVNADKLAGRTRKYKVIFSPQKFYACEMVLEEEGIYGDVSCDEWAFSLLPLDVDLLSMELPEFFRDYFLEGDQRWINTVAQALHLLSTLYGPFPNCYGIGRCAKMAYELWRNLEEEEDGETKGRRPEIGHIFLLDRDVDFVTALCSQVVYEGLVDDTFRIKCGSVDFGPEVTSSDKSLKVLLNAEDKVFNEIRNEHFSNVFGFLSQKARNLQAQYDRRRGMDIKQMKNFVSQELKGLKQEHRLLSLHIGACESIMKKKTKQDFQELIKTEHALLEGFNIRESTSYIEEHIDRQVSPIESLRLMCLLSITENGLIPKDYRSLKTQYLQSYGPEHLLTFSNLRRAGLLTEQAPGDTLTAVESKVSKLVTDKAAGKITDAFSSLAKRSNFRAISKKLNLIPRVDGEYDLKVPRDMAYVFGGAYVPLSCRIIEQVLERRSWQGLDEVVRLLNCSDFAFTDMTKEDKASSESLRLILVVFLGGCTFSEISALRFLGREKGYRFIFLTTAVTNSARLMEAMSEVKA"}}, "key": {"HA-tagged VPS33B (human)": {"target": "T1, HA-tagged VPS33B (human) (UniProt Q9H267)", "T1 sequence": "B2 chain", "assay": "co-IP; HEK293 cells transfected 48 h; NP-40 lysis buffer (0.3% NP-40, 10 mM HEPES pH 8.5, 10 mM KCl, 5 mM MgCl2, 5 mM DTT); anti-myc or anti-HA antibody on Dynabeads Protein G, overnight at 4 °C; western blot"}, "[1]": {"target": "T2, myc-tagged VIPAR, full-length (FL) (human) (UniProt Q9H9C1)", "T2 sequence": "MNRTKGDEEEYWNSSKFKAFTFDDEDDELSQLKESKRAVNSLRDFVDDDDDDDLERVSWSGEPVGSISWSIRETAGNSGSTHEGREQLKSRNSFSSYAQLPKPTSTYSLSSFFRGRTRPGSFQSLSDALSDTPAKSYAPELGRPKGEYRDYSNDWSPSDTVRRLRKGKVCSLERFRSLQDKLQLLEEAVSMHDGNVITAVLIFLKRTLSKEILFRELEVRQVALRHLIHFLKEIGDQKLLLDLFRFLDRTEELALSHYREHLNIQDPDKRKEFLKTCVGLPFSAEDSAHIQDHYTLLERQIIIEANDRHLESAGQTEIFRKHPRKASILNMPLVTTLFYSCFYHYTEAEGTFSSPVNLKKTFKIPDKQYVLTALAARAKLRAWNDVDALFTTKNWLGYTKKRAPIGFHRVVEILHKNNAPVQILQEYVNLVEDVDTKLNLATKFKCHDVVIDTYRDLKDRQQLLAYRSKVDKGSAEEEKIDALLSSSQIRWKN", "assay": "co-IP; HEK293 cells transfected 48 h; NP-40 lysis buffer (0.3% NP-40, 10 mM HEPES pH 8.5, 10 mM KCl, 5 mM MgCl2, 5 mM DTT); anti-myc or anti-HA antibody on Dynabeads Protein G, overnight at 4 °C; western blot"}}, "note": "No constants are given. Whether binding was seen depends on the method and setting. Binding seen in cells or lysates may run through a third protein. Some entries that bind do so weakly or less than the wild type. Tags and fused reporters may be left off the sequences shown."}
{"molecule": "GFP-RAB10 (from UniProt P61026 1-200)", "values": [{"measurement": "binding", "setting": "HA-tagged VPS33B (human)", "result": "binds"}]}
{"molecule": "lysyl hydroxylase 3 (LH3, also known as PLOD3), endogenous (from UniProt O60568 25-738) (enzyme)", "values": [{"measurement": "binding", "setting": "HA-tagged VPS33B (human)", "result": "binds"}]}
{"molecule": "B1", "values": [{"measurement": "binding", "setting": "HA-tagged VPS33B (human)", "result": "binds"}]}
{"molecule": "B2", "values": [{"measurement": "binding", "setting": "[1]", "result": "binds"}]}
